# According to the supplement of paper PMC11732987, “Enantioselective OTUD7B fragment discovery through chemoproteomics screening and high-throughput optimisation” (Communications Chemistry, 2025):
# Sequences of proteins named here, by UniProt entry; tags and fusion partners are left off. A change or cut given only in a name is not applied to a line headed by its entry. Residues count along the entry.
# UniProt Q86WR0: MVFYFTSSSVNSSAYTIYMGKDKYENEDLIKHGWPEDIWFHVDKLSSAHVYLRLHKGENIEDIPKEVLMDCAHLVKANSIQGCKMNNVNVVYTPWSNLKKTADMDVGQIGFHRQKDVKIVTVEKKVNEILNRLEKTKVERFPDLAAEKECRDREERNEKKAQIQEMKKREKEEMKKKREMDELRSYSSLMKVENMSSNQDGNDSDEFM
# UniProt Q8N2Z9: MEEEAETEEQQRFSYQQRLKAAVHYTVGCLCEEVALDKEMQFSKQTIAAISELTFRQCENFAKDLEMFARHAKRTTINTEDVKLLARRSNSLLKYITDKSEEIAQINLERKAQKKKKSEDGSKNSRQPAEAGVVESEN
# UniProt Q00534, 306-326: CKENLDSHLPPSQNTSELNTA
# UniProt Q9Y281, whole entry, looked up: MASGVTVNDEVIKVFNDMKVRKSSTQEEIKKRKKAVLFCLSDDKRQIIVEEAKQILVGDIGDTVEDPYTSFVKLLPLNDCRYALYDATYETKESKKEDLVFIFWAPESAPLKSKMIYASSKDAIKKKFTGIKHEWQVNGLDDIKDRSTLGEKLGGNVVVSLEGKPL
# UniProt Q02224: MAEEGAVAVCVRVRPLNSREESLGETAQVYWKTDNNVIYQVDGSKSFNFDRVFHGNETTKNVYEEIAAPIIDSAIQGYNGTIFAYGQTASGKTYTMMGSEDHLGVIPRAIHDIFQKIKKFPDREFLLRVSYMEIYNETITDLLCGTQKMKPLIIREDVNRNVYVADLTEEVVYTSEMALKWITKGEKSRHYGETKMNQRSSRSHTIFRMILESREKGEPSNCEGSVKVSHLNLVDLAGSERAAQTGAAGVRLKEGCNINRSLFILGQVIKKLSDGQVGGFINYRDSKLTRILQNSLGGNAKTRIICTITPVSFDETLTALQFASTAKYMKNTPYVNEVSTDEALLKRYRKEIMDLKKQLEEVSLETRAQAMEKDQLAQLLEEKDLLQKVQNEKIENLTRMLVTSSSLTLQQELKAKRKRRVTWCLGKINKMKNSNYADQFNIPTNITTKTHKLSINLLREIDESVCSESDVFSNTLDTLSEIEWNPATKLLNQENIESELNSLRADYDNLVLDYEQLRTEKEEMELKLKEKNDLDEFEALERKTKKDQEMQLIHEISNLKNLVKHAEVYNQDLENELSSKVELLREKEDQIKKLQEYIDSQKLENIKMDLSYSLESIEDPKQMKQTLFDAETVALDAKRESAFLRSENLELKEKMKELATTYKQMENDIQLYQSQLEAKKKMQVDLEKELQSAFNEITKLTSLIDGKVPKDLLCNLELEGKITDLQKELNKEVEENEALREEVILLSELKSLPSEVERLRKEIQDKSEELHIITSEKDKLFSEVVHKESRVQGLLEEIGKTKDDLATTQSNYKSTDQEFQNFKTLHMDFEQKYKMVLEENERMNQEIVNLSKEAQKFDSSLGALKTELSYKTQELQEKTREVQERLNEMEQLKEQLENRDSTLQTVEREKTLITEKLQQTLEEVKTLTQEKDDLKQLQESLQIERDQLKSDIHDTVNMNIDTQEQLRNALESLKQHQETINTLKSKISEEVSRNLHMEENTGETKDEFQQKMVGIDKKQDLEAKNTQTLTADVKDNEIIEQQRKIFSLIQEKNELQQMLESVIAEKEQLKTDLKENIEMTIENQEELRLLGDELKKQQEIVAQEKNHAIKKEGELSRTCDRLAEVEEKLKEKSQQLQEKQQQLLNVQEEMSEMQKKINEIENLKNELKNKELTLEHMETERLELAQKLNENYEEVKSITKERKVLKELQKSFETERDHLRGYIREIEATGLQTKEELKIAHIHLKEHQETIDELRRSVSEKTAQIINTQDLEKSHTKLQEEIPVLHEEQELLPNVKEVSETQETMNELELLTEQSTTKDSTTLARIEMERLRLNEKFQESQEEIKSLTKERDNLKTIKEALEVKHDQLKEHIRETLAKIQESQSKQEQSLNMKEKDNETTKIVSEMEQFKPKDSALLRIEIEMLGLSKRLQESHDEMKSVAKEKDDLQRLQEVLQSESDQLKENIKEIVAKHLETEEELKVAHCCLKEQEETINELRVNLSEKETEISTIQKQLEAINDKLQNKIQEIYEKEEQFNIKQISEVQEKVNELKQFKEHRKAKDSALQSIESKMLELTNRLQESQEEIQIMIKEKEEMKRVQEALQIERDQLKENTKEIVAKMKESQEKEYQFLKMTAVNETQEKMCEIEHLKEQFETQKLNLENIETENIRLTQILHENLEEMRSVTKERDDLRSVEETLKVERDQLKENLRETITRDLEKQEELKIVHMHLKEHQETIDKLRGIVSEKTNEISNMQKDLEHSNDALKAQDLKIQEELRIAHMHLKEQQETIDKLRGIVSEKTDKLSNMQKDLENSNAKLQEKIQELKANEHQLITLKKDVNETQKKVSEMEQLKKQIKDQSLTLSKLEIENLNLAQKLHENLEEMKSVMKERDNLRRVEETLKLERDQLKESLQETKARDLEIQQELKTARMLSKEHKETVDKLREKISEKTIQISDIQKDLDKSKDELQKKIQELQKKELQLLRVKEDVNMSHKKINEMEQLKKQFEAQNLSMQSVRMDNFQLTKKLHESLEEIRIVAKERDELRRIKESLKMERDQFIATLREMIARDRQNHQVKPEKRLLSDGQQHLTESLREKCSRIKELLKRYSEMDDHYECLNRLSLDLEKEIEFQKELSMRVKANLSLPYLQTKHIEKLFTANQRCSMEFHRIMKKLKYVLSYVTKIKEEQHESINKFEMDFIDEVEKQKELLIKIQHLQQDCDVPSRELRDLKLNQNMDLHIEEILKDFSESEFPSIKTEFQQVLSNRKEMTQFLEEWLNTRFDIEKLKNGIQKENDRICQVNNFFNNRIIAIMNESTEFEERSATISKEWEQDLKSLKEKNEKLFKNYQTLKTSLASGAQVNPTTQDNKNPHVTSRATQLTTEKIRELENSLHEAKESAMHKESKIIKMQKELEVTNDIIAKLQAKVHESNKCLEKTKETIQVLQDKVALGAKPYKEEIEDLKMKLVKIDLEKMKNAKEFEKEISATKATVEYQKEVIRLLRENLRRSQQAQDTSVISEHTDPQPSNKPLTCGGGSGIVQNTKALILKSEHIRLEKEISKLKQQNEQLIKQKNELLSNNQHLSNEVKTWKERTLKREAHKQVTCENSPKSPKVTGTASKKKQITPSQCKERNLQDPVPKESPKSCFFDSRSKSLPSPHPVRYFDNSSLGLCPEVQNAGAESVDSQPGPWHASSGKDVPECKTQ
# UniProt Q13042, whole entry, looked up: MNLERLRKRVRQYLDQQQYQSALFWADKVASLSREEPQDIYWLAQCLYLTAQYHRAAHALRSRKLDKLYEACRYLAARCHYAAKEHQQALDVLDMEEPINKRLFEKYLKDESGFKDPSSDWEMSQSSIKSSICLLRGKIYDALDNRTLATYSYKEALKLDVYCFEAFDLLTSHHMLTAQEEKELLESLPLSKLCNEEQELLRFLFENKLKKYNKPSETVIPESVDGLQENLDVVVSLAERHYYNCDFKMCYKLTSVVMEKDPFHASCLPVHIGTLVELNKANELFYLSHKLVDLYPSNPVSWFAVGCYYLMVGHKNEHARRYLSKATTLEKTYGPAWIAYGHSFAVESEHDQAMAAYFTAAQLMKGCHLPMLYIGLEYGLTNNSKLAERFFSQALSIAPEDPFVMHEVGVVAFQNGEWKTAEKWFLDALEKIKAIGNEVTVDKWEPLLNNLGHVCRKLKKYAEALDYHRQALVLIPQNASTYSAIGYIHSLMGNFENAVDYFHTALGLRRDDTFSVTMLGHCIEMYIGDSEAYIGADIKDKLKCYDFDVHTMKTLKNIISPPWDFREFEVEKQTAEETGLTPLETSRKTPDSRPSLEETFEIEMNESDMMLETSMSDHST
# UniProt Q03701: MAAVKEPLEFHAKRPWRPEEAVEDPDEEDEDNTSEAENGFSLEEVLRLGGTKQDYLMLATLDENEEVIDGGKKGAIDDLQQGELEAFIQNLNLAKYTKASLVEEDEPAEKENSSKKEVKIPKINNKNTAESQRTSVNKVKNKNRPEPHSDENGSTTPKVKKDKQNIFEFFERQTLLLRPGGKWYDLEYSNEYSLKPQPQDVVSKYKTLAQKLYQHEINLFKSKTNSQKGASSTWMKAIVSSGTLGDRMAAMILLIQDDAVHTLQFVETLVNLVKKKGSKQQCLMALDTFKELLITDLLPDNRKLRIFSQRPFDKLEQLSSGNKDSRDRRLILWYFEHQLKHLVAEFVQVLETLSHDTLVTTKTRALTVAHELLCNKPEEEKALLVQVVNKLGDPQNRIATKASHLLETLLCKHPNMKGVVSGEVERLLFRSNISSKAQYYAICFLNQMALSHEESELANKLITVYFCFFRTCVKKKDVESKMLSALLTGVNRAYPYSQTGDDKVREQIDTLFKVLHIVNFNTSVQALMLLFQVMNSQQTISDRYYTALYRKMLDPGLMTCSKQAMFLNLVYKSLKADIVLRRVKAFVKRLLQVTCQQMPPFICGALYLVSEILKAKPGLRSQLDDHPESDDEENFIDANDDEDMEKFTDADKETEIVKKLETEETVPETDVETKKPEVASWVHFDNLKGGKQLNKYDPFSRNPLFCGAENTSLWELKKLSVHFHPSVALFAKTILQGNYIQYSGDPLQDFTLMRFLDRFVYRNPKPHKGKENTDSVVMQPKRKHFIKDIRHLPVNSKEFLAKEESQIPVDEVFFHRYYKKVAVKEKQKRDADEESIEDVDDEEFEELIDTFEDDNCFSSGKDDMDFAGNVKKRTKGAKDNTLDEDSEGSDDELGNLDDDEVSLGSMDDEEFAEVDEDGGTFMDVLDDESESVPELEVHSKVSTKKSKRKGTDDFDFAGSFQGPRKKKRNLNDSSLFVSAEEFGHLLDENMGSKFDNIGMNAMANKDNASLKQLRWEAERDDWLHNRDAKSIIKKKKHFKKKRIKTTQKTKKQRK
# UniProt Q96G28, 132-155: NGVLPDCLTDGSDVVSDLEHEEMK
# UniProt Q99832: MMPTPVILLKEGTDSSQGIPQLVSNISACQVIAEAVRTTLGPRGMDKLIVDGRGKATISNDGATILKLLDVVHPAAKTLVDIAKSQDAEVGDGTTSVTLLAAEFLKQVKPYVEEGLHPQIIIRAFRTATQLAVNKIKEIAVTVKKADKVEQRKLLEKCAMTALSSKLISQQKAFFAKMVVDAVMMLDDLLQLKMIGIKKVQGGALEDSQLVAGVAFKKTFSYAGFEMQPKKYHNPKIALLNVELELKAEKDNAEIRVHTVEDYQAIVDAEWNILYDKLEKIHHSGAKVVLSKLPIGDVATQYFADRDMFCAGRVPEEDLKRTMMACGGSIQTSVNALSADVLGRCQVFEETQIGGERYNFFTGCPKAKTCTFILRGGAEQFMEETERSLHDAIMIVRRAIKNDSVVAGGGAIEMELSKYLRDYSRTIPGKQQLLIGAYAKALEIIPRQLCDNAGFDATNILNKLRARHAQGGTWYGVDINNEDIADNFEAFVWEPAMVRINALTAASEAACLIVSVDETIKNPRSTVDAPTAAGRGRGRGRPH
# UniProt Q7Z6B0: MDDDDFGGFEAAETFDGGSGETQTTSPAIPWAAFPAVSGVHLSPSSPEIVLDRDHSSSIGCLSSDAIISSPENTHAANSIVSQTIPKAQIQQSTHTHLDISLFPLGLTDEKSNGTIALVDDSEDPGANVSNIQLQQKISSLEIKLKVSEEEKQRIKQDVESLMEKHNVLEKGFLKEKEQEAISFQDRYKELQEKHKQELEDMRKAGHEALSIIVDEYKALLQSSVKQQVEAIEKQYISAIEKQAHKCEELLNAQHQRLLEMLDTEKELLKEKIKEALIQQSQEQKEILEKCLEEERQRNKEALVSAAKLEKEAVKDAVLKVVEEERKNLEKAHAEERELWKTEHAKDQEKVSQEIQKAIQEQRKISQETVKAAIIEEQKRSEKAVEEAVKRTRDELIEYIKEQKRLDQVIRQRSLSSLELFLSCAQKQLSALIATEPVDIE
# UniProt Q00537: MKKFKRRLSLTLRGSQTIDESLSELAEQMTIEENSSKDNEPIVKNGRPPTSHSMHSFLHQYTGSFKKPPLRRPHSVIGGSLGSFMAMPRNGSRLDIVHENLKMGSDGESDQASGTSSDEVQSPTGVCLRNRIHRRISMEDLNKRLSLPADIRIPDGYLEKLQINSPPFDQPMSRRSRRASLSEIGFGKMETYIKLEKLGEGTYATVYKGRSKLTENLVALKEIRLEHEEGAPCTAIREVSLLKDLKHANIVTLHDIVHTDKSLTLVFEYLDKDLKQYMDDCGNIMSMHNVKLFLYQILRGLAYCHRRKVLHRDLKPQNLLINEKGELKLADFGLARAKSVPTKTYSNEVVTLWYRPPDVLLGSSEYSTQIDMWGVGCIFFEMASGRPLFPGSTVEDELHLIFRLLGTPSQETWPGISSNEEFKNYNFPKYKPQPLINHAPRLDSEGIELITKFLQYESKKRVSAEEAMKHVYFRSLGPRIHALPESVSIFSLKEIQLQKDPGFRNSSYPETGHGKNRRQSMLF
# The list shows a part of the results. The data scatter; read single values as rough.
# Legend:
# [1] = compound: ClCC(=O)N[C@@H]1CCCc2ccccc12; assay: log2 mean competition ratio of IA-DTB cysteine labelling (DMSO/compound) (log2 ratio); higher = stronger cysteine engagement by compound; settings: treatment time: 4 h, cell line lysate: HEK293T
# Description: (§1)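 IA-DTB competitive cysteine chemoproteomics in HEK293T RIPA lysate. Lysates were treated with compound 29 or 30 at 50 or 200 µM for 4 h, then IA-DTB (500 µM, 1 h), trypsin-digested, NeutrAvidin-enriched and analysed by diaPASEF. Competition ratio = intensity DMSO / intensity compound (n=4 treated, n=64 DMSO); binding: mean log2 CR ≥ 1 and p ≤ 0.05 plus QC filters. Target is the cysteine site.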
# [2] = compound: ClCC(=O)N[C@H]1CCCc2ccccc12; assay: as above; settings: treatment time: 4 h, cell line lysate: HEK293T
# Description: as §1
Target,log2 mean competition ratio ([1]; 50 µM),log2 mean competition ratio ([1]; 200 µM),log2 mean competition ratio ([2]; 50 µM),log2 mean competition ratio ([2]; 200 µM)
CEP192 C1562 (UniProt Q8TEP8),0.114,-0.0018,0.134,-0.339
CCDC51 C316 (UniProt Q96ER9),-0.383,0.229,0.123,-0.207
CENPF C2464 (UniProt P49454),-0.123,0.23,-0.205,-0.00415
CEP192 C272 (UniProt Q8TEP8),-0.151,0.289,0.129,0.377
CCDC25 C83 (UniProt Q86WR0),0.0174,-0.197,0.227,-0.094
CDC25C C145 (UniProt P30307),0.0469,-0.0183,-0.0728,-0.186
CCDC120 C391,0.189,0.00674,0.334,0.501
CHD4 C1827,-0.116,0.101,-0.487,-0.128
CCP110 C462 (UniProt O43303),0.0921,-0.216,0.365,-0.318
CHAF1A C21 (UniProt Q13111),0.00423,0.181,0.371,0.335
CENPS C58 (UniProt Q8N2Z9),-0.187,-0.179,0.0908,-0.0431
CDK6 C306 (UniProt Q00534),0.0261,0.167,-0.183,-0.152
CFL2 C39 (UniProt Q9Y281),-0.151,0.286,-0.316,0.305
CENPQ C121 (UniProt Q7L2Z9),-0.00994,0.108,-0.134,0.174
CHAF1A C79 (UniProt Q13111),0.158,0.0906,0.0669,-0.112
CCT8 C430,-0.0797,0.0042,0.252,-0.032
CCT3 C398,0.201,-0.0121,0.402,0.105
CEP350 C1999 (UniProt Q5VT06),0.119,-0.152,0.254,0.0401
CENPE C2219 (UniProt Q02224),0.639,0.389,-0.113,0.447
CDC42BPA C678 (UniProt Q5VT25),-0.506,0.512,-0.511,0.184
CDK8 C291 (UniProt P49336),0.203,0.337,-0.0119,0.351
CENPE C2116 (UniProt Q02224),0.264,0.332,-0.333,0.0195
CDC20 C472 (UniProt Q12834),-0.153,0.196,-0.295,0.198
CENPE C714 (UniProt Q02224),-0.234,0.331,-0.264,0.592

# Given bar-delimited: part of the list above
Target | log2 mean competition ratio ([1]; 50 µM) | log2 mean competition ratio ([1]; 200 µM) | log2 mean competition ratio ([2]; 50 µM) | log2 mean competition ratio ([2]; 200 µM)
CCDC51 C316 (UniProt Q96ER9) | -0.383 | 0.229 | 0.123 | -0.207
CEP350 C1999 (UniProt Q5VT06) | 0.119 | -0.152 | 0.254 | 0.0401
CDC42BPA C678 (UniProt Q5VT25) | -0.506 | 0.512 | -0.511 | 0.184

# Continued.

Target,log2 mean competition ratio ([1]; 50 µM),log2 mean competition ratio ([1]; 200 µM),log2 mean competition ratio ([2]; 50 µM),log2 mean competition ratio ([2]; 200 µM)
CENPP C22 (UniProt Q6IPU0),-0.252,-0.108,-0.085,-0.0953
CDK2 C177 (UniProt P24941),0.242,-0.137,0.206,-0.145
CDC16 C544 (UniProt Q13042),0.537,0.568,0.0735,0.271
CEBPZ C560 (UniProt Q03701),0.0664,0.414,0.0835,0.654
CEP250 C110 (UniProt Q9BV73),0.159,-0.0347,0.0924,-0.133
CDK5 C83 (UniProt Q00535),-0.314,0.592,-0.452,0.184
CDKN2AIP C516 (UniProt Q9NXV6),-0.0149,-0.349,0.637,0.0336
CCDC102A C214 (UniProt Q96A19),0.0623,-0.12,0.126,0.274
CDK5RAP2 C1267 (UniProt Q96SN8),-0.2,0.0339,-0.236,0.398
CEP135 C316 (UniProt Q66GS9),0.303,-0.0396,0.119,0.0311
CENPU C239 (UniProt Q71F23),-0.166,0.244,-0.451,0.127
CFAP36 C138 (UniProt Q96G28),-0.00968,0.116,-0.565,-0.0137
CCT7 C158 (UniProt Q99832),0.29,-0.0445,0.549,0.0724
CDK5RAP2 C434 (UniProt Q96SN8),-0.0185,-0.202,-0.171,-0.129
CENPF C1671 (UniProt P49454),-0.0835,-0.0532,0.0201,0.0573
CCT4 C295 (UniProt P50991),0.146,-0.119,-0.175,-0.101
CCNB1 C238 (UniProt P14635),0.361,-0.0765,0.194,-0.3
CEP152 C818 (UniProt O94986),-0.25,-0.207,-0.153,0.0138
CDK6 C15 (UniProt Q00534),-0.3,-0.0205,0.231,0.00662
CHCHD3 C112 (UniProt Q9NX63),-0.119,0.0435,0.165,0.106
CCDC74A;CCDC74B C241;(C241),0.442,-0.0317,0.164,-0.248
CDK5 C94 (UniProt Q00535),-0.138,-0.00468,-0.0336,0.0866
CCDC91 C247 (UniProt Q7Z6B0),-0.134,0.191,-0.511,-0.0506
CDK17 C233 (UniProt Q00537),-0.139,0.0299,-0.327,-0.0424
